Measurements taken from publication PMC8384837.
Positions count from the first letter of the chain named. Some of the results follow. For some assays here: At the low end of the ranking the order means little.

Columns and labels:
Conditions in all cases: yeast three-hybrid, YBZ-1, SC-Leu-His + 0.5 mM 3-AT, 4 days
[1] = molecular target: T1, PUM1 PUF domain R2-AFS N899A + Y900F + Q903S (UniProt Q14671)
T1 sequence: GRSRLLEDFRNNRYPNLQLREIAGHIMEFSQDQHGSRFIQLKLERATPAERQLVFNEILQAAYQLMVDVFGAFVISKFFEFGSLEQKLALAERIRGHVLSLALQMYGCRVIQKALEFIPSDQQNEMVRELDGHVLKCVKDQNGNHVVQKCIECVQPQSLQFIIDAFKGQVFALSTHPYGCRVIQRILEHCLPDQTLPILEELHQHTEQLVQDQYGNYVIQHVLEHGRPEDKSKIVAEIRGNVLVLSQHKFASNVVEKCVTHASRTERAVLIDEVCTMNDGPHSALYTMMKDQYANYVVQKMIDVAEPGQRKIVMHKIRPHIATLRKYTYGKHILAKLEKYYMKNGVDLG

[2] = molecular target: T2, PUM1 PUF domain R2-AFW N899A + Y900F + Q903W (UniProt Q14671)
T2 sequence: T1 sequence with S76W

[3] = molecular target: T3, PUM1 PUF domain R2-ARP N899A + Y900R + Q903P (UniProt Q14671)
T3 sequence: T1 sequence with F73R, S76P

[4] = molecular target: T4, PUM1 PUF domain R2-AVA N899A + Y900V + Q903A (UniProt Q14671)
T4 sequence: T1 sequence with F73V, S76A

[5] = molecular target: T5, PUM1 PUF domain R2-AWH N899A + Y900W + Q903H (Homo sapiens) (UniProt Q14671)
T5 sequence: T1 sequence with F73W, S76H

[6] = molecular target: T6, PUM1 PUF domain R2-AWW N899A + Y900W + Q903W (UniProt Q14671)
T6 sequence: T1 sequence with F73W, S76W

[7] = molecular target: T7, PUM1 PUF domain R2-AWY N899A + Y900W + Q903Y (UniProt Q14671)
T7 sequence: T1 sequence with F73W, S76Y

[8] = molecular target: T8, PUM1 PUF domain R2-AYW N899A + Q903W (UniProt Q14671)
T8 sequence: T1 sequence with F73Y, S76W

[9] = molecular target: T9, PUM1 PUF domain R2-CFP N899C + Y900F + Q903P (UniProt Q14671)
T9 sequence: T1 sequence with A72C, S76P

[10] = molecular target: T10, PUM1 PUF domain R2-CGI N899C + Y900G + Q903I (UniProt Q14671)
T10 sequence: T1 sequence with A72C, F73G, S76I

[11] = molecular target: T11, PUM1 PUF domain R2-CYP N899C + Q903P (UniProt Q14671)
T11 sequence: T1 sequence with A72C, F73Y, S76P

[12] = molecular target: T12, PUM1 PUF domain R2-DRQ N899D + Y900R (UniProt Q14671)
T12 sequence: T1 sequence with A72D, F73R, S76Q

[13] = molecular target: T13, PUM1 PUF domain R2-DWC N899D + Y900W + Q903C (UniProt Q14671)
T13 sequence: T1 sequence with A72D, F73W, S76C

[14] = molecular target: T14, PUM1 PUF domain R2-DWE N899D + Y900W + Q903E (UniProt Q14671)
T14 sequence: T1 sequence with A72D, F73W, S76E

[15] = molecular target: T15, PUM1 PUF domain R2-DWI N899D + Y900W + Q903I (Homo sapiens) (UniProt Q14671)
T15 sequence: T1 sequence with A72D, F73W, S76I

[16] = molecular target: T16, PUM1 PUF domain R2-DWL N899D + Y900W + Q903L (UniProt Q14671)
T16 sequence: T1 sequence with A72D, F73W, S76L

[17] = molecular target: T17, PUM1 PUF domain R2-EPW N899E + Y900P + Q903W (UniProt Q14671)
T17 sequence: T1 sequence with A72E, F73P, S76W

[18] = molecular target: T18, PUM1 PUF domain R2-EWA N899E + Y900W + Q903A (UniProt Q14671)
T18 sequence: T1 sequence with A72E, F73W, S76A

[19] = molecular target: T19, PUM1 PUF domain R2-EWD N899E + Y900W + Q903D (UniProt Q14671)
T19 sequence: T1 sequence with A72E, F73W, S76D

[20] = molecular target: T20, PUM1 PUF domain R2-GFD N899G + Y900F + Q903D (UniProt Q14671)
T20 sequence: T1 sequence with A72G, S76D

[21] = molecular target: T21, PUM1 PUF domain R2-GWD N899G + Y900W + Q903D (UniProt Q14671)
T21 sequence: T1 sequence with A72G, F73W, S76D

[22] = molecular target: T22, PUM1 PUF domain R2-GWF N899G + Y900W + Q903F (UniProt Q14671)
T22 sequence: T1 sequence with A72G, F73W, S76F

[23] = molecular target: T23, PUM1 PUF domain R2-GWG N899G + Y900W + Q903G (UniProt Q14671)
T23 sequence: T1 sequence with A72G, F73W, S76G

[24] = molecular target: T24, PUM1 PUF domain R2-GWW N899G + Y900W + Q903W (UniProt Q14671)
T24 sequence: T1 sequence with A72G, F73W, S76W

[25] = molecular target: T25, PUM1 PUF domain R2-GWY N899G + Y900W + Q903Y (UniProt Q14671)
T25 sequence: T1 sequence with A72G, F73W, S76Y

[26] = molecular target: T26, PUM1 PUF domain R2-IFA N899I + Y900F + Q903A (Homo sapiens) (UniProt Q14671)
T26 sequence: T1 sequence with A72I, S76A

[27] = molecular target: T27, PUM1 PUF domain R2-IVF N899I + Y900V + Q903F (UniProt Q14671)
T27 sequence: T1 sequence with A72I, F73V, S76F

[28] = molecular target: T28, PUM1 PUF domain R2-KCA N899K + Y900C + Q903A (UniProt Q14671)
T28 sequence: T1 sequence with A72K, F73C, S76A

[29] = molecular target: T29, PUM1 PUF domain R2-KFG N899K + Y900F + Q903G (UniProt Q14671)
T29 sequence: T1 sequence with A72K, S76G

[30] = molecular target: T30, PUM1 PUF domain R2-KIG N899K + Y900I + Q903G (UniProt Q14671)
T30 sequence: T1 sequence with A72K, F73I, S76G

[31] = molecular target: T31, PUM1 PUF domain R2-KLQ N899K + Y900L (UniProt Q14671)
T31 sequence: T1 sequence with A72K, F73L, S76Q

[32] = molecular target: T32, PUM1 PUF domain R2-KLS N899K + Y900L + Q903S (UniProt Q14671)
T32 sequence: T1 sequence with A72K, F73L

[33] = molecular target: T33, PUM1 PUF domain R2-KLV N899K + Y900L + Q903V (UniProt Q14671)
T33 sequence: T1 sequence with A72K, F73L, S76V

[34] = molecular target: T34, PUM1 PUF domain R2-KRA N899K + Y900R + Q903A (UniProt Q14671)
T34 sequence: T1 sequence with A72K, F73R, S76A

[35] = molecular target: T35, PUM1 PUF domain R2-KRG N899K + Y900R + Q903G (Homo sapiens) (UniProt Q14671)
T35 sequence: T1 sequence with A72K, F73R, S76G

[36] = molecular target: T36, PUM1 PUF domain R2-KVA N899K + Y900V + Q903A (UniProt Q14671)
T36 sequence: T1 sequence with A72K, F73V, S76A

[37] = molecular target: T37, PUM1 PUF domain R2-LFA N899L + Y900F + Q903A (UniProt Q14671)
T37 sequence: T1 sequence with A72L, S76A

[38] = molecular target: T38, PUM1 PUF domain R2-LFC N899L + Y900F + Q903C (UniProt Q14671)
T38 sequence: T1 sequence with A72L, S76C

[39] = molecular target: T39, PUM1 PUF domain R2-LFG N899L + Y900F + Q903G (UniProt Q14671)
T39 sequence: T1 sequence with A72L, S76G

[40] = molecular target: T40, PUM1 PUF domain R2-LFI N899L + Y900F + Q903I (UniProt Q14671)
T40 sequence: T1 sequence with A72L, S76I

[41] = molecular target: T41, PUM1 PUF domain R2-LFL N899L + Y900F + Q903L (UniProt Q14671)
T41 sequence: T1 sequence with A72L, S76L

[42] = molecular target: T42, PUM1 PUF domain R2-LFS N899L + Y900F + Q903S (UniProt Q14671)
T42 sequence: T1 sequence with A72L

[43] = molecular target: T43, PUM1 PUF domain R2-LFV N899L + Y900F + Q903V (Homo sapiens) (UniProt Q14671)
T43 sequence: T1 sequence with A72L, S76V

[44] = molecular target: T44, PUM1 PUF domain R2-LHR N899L + Y900H + Q903R (Homo sapiens) (UniProt Q14671)
T44 sequence: T1 sequence with A72L, F73H, S76R

“GGCUAGAACUAGUGGAUCCCCCGGCGCCCGGCGGCUCGAGCCCGGGUAAGUGUAAACAGUCUGCAUGCCGCCGGGCGCCAUGCCUGCAGGUCGACUCUAGAAAACAUG” was tested, and the binding signal (log2 enrichment (interaction score)) [1] was < -6.58, the binding signal (log2 enrichment (interaction score)) [2] was < -8.45 and the binding signal (log2 enrichment (interaction score)) [3] was < -8.19. The binding signal (log2 enrichment (interaction score)) [4] was < -7.55, the binding signal (log2 enrichment (interaction score)) [5] was -1.24 and the binding signal (log2 enrichment (interaction score)) [6] was < -7.76. For the same sequence, the binding signal (log2 enrichment (interaction score)) [7] was < -5.47, the binding signal (log2 enrichment (interaction score)) [8] was < -6.67 and the binding signal (log2 enrichment (interaction score)) [9] was < -7.25. For the same sequence, the binding signal (log2 enrichment (interaction score)) [10] was < -7.48, the binding signal (log2 enrichment (interaction score)) [11] was < -6.4 and the binding signal (log2 enrichment (interaction score)) [12] was < -6.1. For the same sequence, the binding signal (log2 enrichment (interaction score)) [13] was < -5.88, the binding signal (log2 enrichment (interaction score)) [14] was < -7.06 and the binding signal (log2 enrichment (interaction score)) [15] was -1.03. For the same sequence, the binding signal (log2 enrichment (interaction score)) [16] was < -8.25, the binding signal (log2 enrichment (interaction score)) [17] was < -7.14 and the binding signal (log2 enrichment (interaction score)) [18] was < -6.14. For the same sequence, the binding signal (log2 enrichment (interaction score)) [19] was < -6.34, the binding signal (log2 enrichment (interaction score)) [20] was < -7.94 and the binding signal (log2 enrichment (interaction score)) [21] was < -7.14. The binding signal (log2 enrichment (interaction score)) [22] was < -8.32, the binding signal (log2 enrichment (interaction score)) [23] was < -8.23 and the binding signal (log2 enrichment (interaction score)) [24] was < -9.24. For the same sequence, the binding signal (log2 enrichment (interaction score)) [25] was < -8.31, the binding signal (log2 enrichment (interaction score)) [26] was < -6.04 and the binding signal (log2 enrichment (interaction score)) [27] was < -6.82. For the same sequence, the binding signal (log2 enrichment (interaction score)) [28] was < -6.62, the binding signal (log2 enrichment (interaction score)) [29] was < -7.01 and the binding signal (log2 enrichment (interaction score)) [30] was < -6.62. The binding signal (log2 enrichment (interaction score)) [31] was < -6.8, the binding signal (log2 enrichment (interaction score)) [32] was < -10.7 and the binding signal (log2 enrichment (interaction score)) [33] was < -7.72. The binding signal (log2 enrichment (interaction score)) [34] was < -6.78, the binding signal (log2 enrichment (interaction score)) [35] was -0.56 and the binding signal (log2 enrichment (interaction score)) [36] was < -5.48. For the same sequence, the binding signal (log2 enrichment (interaction score)) [37] was < -9.04, the binding signal (log2 enrichment (interaction score)) [38] was < -7.2 and the binding signal (log2 enrichment (interaction score)) [39] was < -10.4. The binding signal (log2 enrichment (interaction score)) [40] was < -6.44, the binding signal (log2 enrichment (interaction score)) [41] was < -8.54 and the binding signal (log2 enrichment (interaction score)) [42] was < -9.88. For the same sequence, the binding signal (log2 enrichment (interaction score)) [43] was -5.27 and the binding signal (log2 enrichment (interaction score)) [44] was < -6.02.
